{
  "source": "patent US20070010428A1",
  "about": "(priority 2004, published 2007)",
  "key": {"[1]": {"test": "general procedure: Fmoc solid-phase peptide synthesis; Rink resin; DIPCDI/HOBt; PyBOP/HOBt/DIPEA for the cinnamic acid cap", "details": "whole synthesis, scale 0.12 mmol"}, "[2]": {"test": "general procedure: Fmoc solid-phase peptide synthesis; Rink-linker-derivatized PL-DMA resin; Rink resin; DIPCDI/HOBt; PyBOP/HOBt/DIPEA for the cinnamic acid cap", "details": "whole synthesis, analytical HPLC in ACN/H2O (0.1% TFA) and MeOH/0.01 M NH4OAc, scale of the general procedure ca 0.18 mmole"}, "[3]": {"test": "general procedure: Fmoc solid-phase peptide synthesis; Rink-derivatized PL-DMA resin; DIPCDI/HOBt; PyBOP/HOBt/DIPEA for the cinnamic acid cap", "details": "whole synthesis, scale ca 0.09 mmol (one quarter aliquot)"}},
  "data": [
    {"substance": "Ac-pTyr-Haic-Gln-Thr-NH2", "values": [
      {"measurement": "crude mass", "setting": "[1]", "result": 66, "unit": "mg"},
      {"measurement": "final HPLC purity", "setting": "[2]", "result": ">98", "unit": "%"}
    ]},
    {"substance": "Ac-pTyr-Leu-Pro-G1-Thr-mts (YLPQTV; N-acetyl, mts; printed: Tyr-Leu-Pro-Gln-Thr-Val-)", "values": [
      {"measurement": "crude mass", "setting": "[3]", "result": 114, "unit": "mg"}
    ]}
  ]
}
